Results from paper doi:10.1101/2025.04.25.650208.

Columns and labels:
[1] = biological target: SecDF (Mycoplasma pneumoniae M129 (endogenous in the cells)); assay: cryo-EM structure
[2] = biological target: SecDF (Mycoplasma pneumoniae M129 (endogenous in the cells)); assay: cross-linking
[3] = biological target: SecDF (Mycoplasma pneumoniae M129 (endogenous in the cells)); assay: condition: only in the open conformation of the dome complex

Binder | binding [1] | binding [2] | binding [3]
SecA (protein, UniProt P75559 1-808) MGLFNFLKLVSPRHRIYHKASKIANEVEGHKNYYRNLTDVQLLEESNKLVDLVTKQNYTILDVAVAALALIREVVYRETGEFAYRVQIIGAYIVLIGDFAEMMTGEGKTLTIVLAAYVSALEKRGVHVVTVNEYLAQRDATNATKILKRVGMTVGCNFANLAPHLKQAAFACDVTYTTNSELGFDYLRDNMVHRFEDKKIRELHFAIVDEGDSVLIDEARTPLIISGPAKNEFAAYVAVDRFVKKLKEDEYKIDPESRAPALTELGIKHAEKNFKTDNLFALENSDLFHKIINALTAVKVFEQGKEYIVRDGKVLIVDHFTGRILEGRSYSNGLHQAVQAKEMVEIEPENVIVATITYQSFFRLYNRLSAVSGTAFTESEEFLKIYNMVVVPVPTNRPNIRKDRADSVFGTPNIKWLAVVKEVKRIHETGRPILIGTANIDDSELLHNYLQEANIPHEVLNAKNHSREAEIVAKAGQKGAVTISTNMAGRGTDIRLGEGVAEMGGLYVLGTERNESRRIDNQLRGRAGRQGDRGETKFFISLGDALFKRFAHDRIERAITKLGNDTFDSSFFSKMLSRTQKRVEAINFDTRKNLIDYDHVLASQRELIYKQRDKFLLATDLSDMIDKMLEKFVEQFCDQYRNPKNQNLVNHIALSEALNLELNMHGVISPKLFENMTFDATVHKTHSLIGEKITNKVKVLTPPIALIRFREIMITAMDKHWIEHLDNVFKLREGVTLRSMEQTSPLNVYIRETDILFQTMLQKIARDVIIQIANLATPEEFDEELMKANALKKLQALREAHEKSNEGQ | binds |  | 
major dome-forming protein (Mdp) 444 (protein, UniProt P75334 28-1325, N-terminal lipidation site (lipoprotein)) CAQPTASTVEGLFKPSSAFADRTDFSLSSILQKSLINRESFNQYLAMRLAPVLRTFYEDNYDTDIKERLNGFTADTDNAFVSQEQNLRNQFRENYLVHLQTDIFDNTGGNQAAWKLRDVNNKIIDDFISRIFAKNFVEYVQDGVGPLTKPTKSLIENTSNFKNIKLQPKFVNKNAKLKINNDAVYAAIQDKLLDQFITNENPNLVSRVVFTNETPVDGFDNYFNTKVIQSPTPSYQFQVFNKYNQQSGGTKGANGFNLLASNLKSYKNDQSKGIDIPNKFSSDSGGKLLLKASDMFDTFDPSFSAAFIQGYLALQKKSKGADSKEVDSLIKDKSIIENFFVDNNTQAAAAARAASSSSEGTIQLKTASDGGGTTQSTVHKTDLVKIFGDKDVFAGEYKQQIGNTNANQTGGGGSGGGGGTSTGSSTGSSTETTTGNSSKAVVDLIEVKKDSSSQPDYILSRGKDGIHLMAVDGGSHYLTESGRDVAKQKKFLLFRALQTKYGLVDTDTTYDFKLFDEVKKYFDTNRILFLFEALLDLSSDTNNKDNFLSYPQFKKFADSIKSIEKDLKELVQAHYKQAVFNETAVAENKVTLKLAERNQPFIDNERNNQIEQNGLAAKLPYEQDAKTGHYNDLGNYYKDIIDNVDKKGTSTVKTTSSNTGQTKNFSEEVVSKLKDNKKKVEEAAKKHVEALKVFTIPSPLYSQVILVQTKLSFTPESTSLGLNLALNNYLTSTELQNSIKLSYFQEDEAFKKIIDITNLTFSQQSGGTGGTNGNNNLTADNWKIFKETYLLDLFESQAQKSIFGHVGSSDKNSSTKTGIEGVLDTLYSSLNLEERLDSDDVIDYLSYLYTAHWLLKDNLKNYKQSLQSKLSRTSNAFLVWSVDSEKNKNDSQSTLSSTASSTSNTGLIQLRSVVSLAQNQAAGQGGDNNSDITQTEVKNPNFVFGSSVYDWTNSKTPEVNRAADDTSSFFYTKSSSSSTGAAQSSATVLRSLNQASGMTTKTAKNRYGFRGIVTSSTSGSLPEAVSRRLFKQFVNQTEKGVKVGGQMLITTAKSGKATLVLKQQADDAESTTNNAYKGALFSFGSMDNLKNIINGIQTQTEFDALYNHLTSDLNIDVTGVDKNKTLTEQKTSLTSFVDSNFKQSTQSAQRGDTSARSARSATVQIKKTQEDNQNTNYKDVFSRFDGYIGDNKVEEKNYTSYQFLSDGGKYHATFVKQVNLDDVEKIGTDSLKQEDSSKDKRLNLSLEEFLAAIALEALDPNNQTQAINALISGNKKGLVKVGDFRIFSSISAQWVRRF | binds | binds | no binding
major dome-forming protein (Mdp) 489 (protein, UniProt P75296 27-1300, N-terminal lipidation site (lipoprotein)) CSALNTSNLFPRQNRSKQLIGFTENNIIKPEAVLKAALAEDNGTETILRVNFGEALKSWYQNNKDRNIATRLTIFSENVEDEHDNLLDQKQQAEPINWPIELQKEYDQWGGSESSWKALKLYDRLIADFQSLIFSNIVANVQLTDGSDQFKPTTKDNLDSTSNKIKFVNSKPNDPNGEFFANLQAYLFAQWVVEENPLPLTQAFFAYQAPKDGLDSLYDQAAIGSALQLGYAFPAFREPNNGQSQGKTTFDPTPNSAQNFGDFIKAVFPEQKNGQTQQSNTSSRTGLFDWQTKWNTNGAANKLLVTKSNLRGAFKGVGLATAIIDQYEYLVGGSKTSSLPEVKVDSNKSNQNPLDSFFMEGKDAVAIRSIVSRAKIAMTDQTPGFKVNPAFVKVKQSQQNDTFYQNQRKLSGGQSGDNNSQGKHHYLQDAVRLTSSQAMAAASTGADSSSGTNVGGSSGGNSVLIPLPRSAALTHTQQQVQQTTSTLQTPVYARGDDGTYALAIDGGDYFLANNKRDFTKQADILLYRYLQAKSNNFKENGVEFSLNLLESGSLFQTWAQTGLTAKLYGALVAMMGSGQGTQVKGSVQGSSRAASVSVQTTQQNRQQSTDTQESEVVKLAKSLLKSSADLAKPFTDNPTFKKALTDIQSEYKDYLAAAGKLSEFKKDLGEVSGLQQAIIDRADKYIQLEKQAQKSAIGLGQPLPYQRASDGSYPALEKFFIPEDSAADGKVKASESGSAALVTLKTTDSQKSTNTVKQPDIKPTRENNDKKLKQLTSDVETKASSLITKWGATPQIGSQFSEIVSLKSKDNKPQTNMILALLSDVGIKWTKILNSFKEWFFTNTNDFKNNYDSEKKELKGNEYKDFNDLVKQTLYLRSWQRLTSKEKFGYYKELGSVKAQAAQSGMVSLSSSAAVANAVASSGMQKSGDQTLLELGKKAFESELEASSSDGQYKYLRFLSTLMWLVKDGAKNYKRLLQQAITVGTRAFVSWTVSYDDTATASAAAAKAQVAVLKTAQATNTQSDNPFNKFVQNPDYVQGSETNWFNDKSTPIKPDSLLESESTYNFTAEPFDDKTKSQKRSTGGTTNEKHFFGFNGLTINSPQSVSTASAGLTEQIFNNFGQLVTSSDKSGALSQYKDKATLKRLIQNTNSDAELNAFGEVLHRAVNVDTSNLGRFNSSGEPLISFDNKKKFLVDVVDKLDDVYFNKFEGYVGQTKVKMSDSSSSSQGTKTIRKPKPHHSPRTRVSRLWAMSFRLPTRTLTKFLLVEKLIRTVL |  | binds | 

These are yes or no findings as the source states them, for the method shown. For some assays here: A result given as binding can be weak or reduced; the word gives no strength. For some assays here: In cells and extracts the contact can be indirect.
